Consider 2 molecules from patent US20220010021A1.

Sequences of proteins named here, by UniProt entry; tags and fusion partners are left off. Residues count along the entry.
UniProt Q86Z14, residues 53-997: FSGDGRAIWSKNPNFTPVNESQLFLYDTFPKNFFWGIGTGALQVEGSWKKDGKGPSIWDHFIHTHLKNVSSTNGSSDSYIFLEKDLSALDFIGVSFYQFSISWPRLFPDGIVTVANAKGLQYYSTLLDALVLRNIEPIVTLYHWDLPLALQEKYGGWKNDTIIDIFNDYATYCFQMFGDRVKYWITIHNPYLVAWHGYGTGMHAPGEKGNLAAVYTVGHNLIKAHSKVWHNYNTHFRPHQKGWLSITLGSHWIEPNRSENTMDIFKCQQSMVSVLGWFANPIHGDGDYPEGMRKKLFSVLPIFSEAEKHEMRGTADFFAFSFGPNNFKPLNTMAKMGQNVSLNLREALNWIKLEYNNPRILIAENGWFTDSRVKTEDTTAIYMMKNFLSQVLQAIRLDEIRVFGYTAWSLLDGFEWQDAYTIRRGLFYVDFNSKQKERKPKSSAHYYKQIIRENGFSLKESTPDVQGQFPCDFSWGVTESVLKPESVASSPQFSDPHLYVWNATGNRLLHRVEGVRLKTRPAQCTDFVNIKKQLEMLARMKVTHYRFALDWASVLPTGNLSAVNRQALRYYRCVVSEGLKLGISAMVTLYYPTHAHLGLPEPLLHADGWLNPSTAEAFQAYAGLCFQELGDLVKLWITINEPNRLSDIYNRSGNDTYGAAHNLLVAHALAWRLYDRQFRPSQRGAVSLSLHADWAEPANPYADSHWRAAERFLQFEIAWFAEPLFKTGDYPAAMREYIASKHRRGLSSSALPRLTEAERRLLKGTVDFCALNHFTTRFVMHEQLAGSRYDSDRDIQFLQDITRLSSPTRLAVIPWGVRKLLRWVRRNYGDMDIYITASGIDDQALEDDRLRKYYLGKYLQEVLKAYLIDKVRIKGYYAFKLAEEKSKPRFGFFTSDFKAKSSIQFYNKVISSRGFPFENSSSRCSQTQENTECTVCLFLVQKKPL

In this experiment the target is human beta-Klotho (KLB) (human) (UniProt Q86Z14). The experiment can be described thus: SPR on human KLB; koff (panel C) and KD (panel D), mean +/- SEM, n=3 [D].

Numbering of substitutions follows the chain as printed. No constants are given. Whether binding was seen depends on the method and setting. Some entries that bind do so weakly or less than the wild type.

B1: Ab0327 (antibody, IgG4, V domains shown)
VH: QVTLKESGPVLVKPTETLTLTCTVSGFSLNNARVGVSWIRQPPGKALEWLAHIFSNDEKSYSTSLKSRLTISKDTSKSQVVLTMTNMDPVDTATYYCARSVVTGGYYYEGMDVWGQGTTVTVSS
VL: SYVLTQPPSVSVAPGQTARITCGGSNIGSESVHWYQQKPGQAPVLVVYYYSDRPSGIPERFSGSNSGNTATLTISRVEAGDEADYYCQVWEGESDHVVFGGGTKLTVLG
B1: the binding result was “binds”.

B2: Ab0337 (antibody, IgG4, V domains shown)
VH: B1 VH
VL: B1 VL with Y49S, Y50H
B2: the binding entry is on record as “binds”.
